Measured values as given in PubChem BioAssay AID445 (National Center for Advancing Translational Sciences (NCATS), 2006).
The other results are listed elsewhere or left out. Further columns of the screen follow, without active or inactive calls. The list favours compounds with an active or inconclusive main result. The note in brackets gives the kind of curve behind each potency; many fits are weak.

Assay: IkB Signaling
Conditions: ABC-DLBCL IkBa-CBG/CBR dual luciferase ratio (green luciferase fused to IkBa over red control in OCI-Ly3 lymphoma cells), 4 h; measured here: control luc red channel unless noted
How it was run: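 In this assay, an IκBα–CBG68 fusion accumulates when IKK-driven degradation is blocked; native CBR normalizes for cell number. OCI-Ly3 cells were treated 4 h with compound and doxycycline, then green and red light read after Chroma-Glo addition.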
For `COc1ccc(NC(=O)C2=CC(c3ccc4c(c3)OCO4)=NS(=O)(=O)N2C)cc1`, the AC50 was 20 µM [falling, single point].
With `Fc1ccc(-n2cc(-c3ccccc3)c3c(NCCc4ccccc4)ncnc32)cc1` the AC50 was 31.6 µM [falling, single point].
In the case of `COc1cccc(CNC(=O)c2oc3c(c2C)-c2nn(Cc4cccc(Cl)c4)cc2CC3)c1`, the AC50 is reported as 25.1 µM [falling, single point].
In the case of `CCOC(=O)N1CCC(n2c(SCC(=O)NCCC3=CCCCC3)nc3ccccc3c2=O)CC1`, the AC50 is reported as 10 µM [falling, partial curve].
With `Cc1[nH]n(-c2ccccc2)c(=O)c1-c1ccccc1` the AC50 was 10 µM [falling, partial curve].
With `C/C(=C\C(=O)c1ccc(C)cc1)Nc1cccc(O)c1` the AC50 was 10 µM [falling, partial curve].
With `COc1ccc(-c2nnc(COc3ccc4ccccc4c3)o2)cc1OC` the AC50 was 6.31 µM [falling, partial curve].
With `CCOc1ccccc1CNC(=O)C1CCN(c2nc3ccccc3o2)CC1` the AC50 was 3.98 µM [falling, partial curve].
With `Cn1c(=O)cc(OCC(=O)NCCCN2CCN(Cc3ccccc3)CC2)c2ccccc21` the AC50 was 25.1 µM [rising, partial curve] [measured here: IkB-luc green channel].
For `c1cncc(-c2nc(NCc3ccco3)c3ccccc3n2)c1`, the AC50 was 10 µM [falling, partial curve].
In the case of `COc1cccc(C(=O)NCc2cn3ccccc3n2)c1`, the AC50 is reported as 12.6 µM [falling, partial curve].
With `O=C(CSc1nnc(-c2ccccc2)c(-c2ccccc2)n1)NC1CCCC1` the AC50 was 31.6 µM [falling, partial curve].
For `CCOc1ccc(C(=O)c2cn(CC(=O)Nc3ccc(F)cc3)c3cc4c(cc3c2=O)OCCO4)cc1`, the AC50 was 6.31 µM [falling, partial curve].
With `C(=C\c1ccccc1)/CN1CCN(c2ncnc3c2oc2ccccc23)CC1` the AC50 was 0.0794 µM [falling, full curve].
With `CCN(Cc1ccccc1)C(=O)CCc1c(C)nc2c(c(C)nn2-c2ccc(C)c(C)c2)c1C` the AC50 was 25.1 µM [falling, single point].
For `Cc1ccc(NC(=O)c2oc3ccc(S(=O)(=O)N4CCCCC4)cc3c2C)cc1Cl`, the AC50 was 6.31 µM [falling, partial curve].
For `CCc1cccc(C)c1NC(=O)Cn1cc2c(n1)CCCC2`, the AC50 was 25.1 µM [falling, single point].
In the case of `Cn1c(=O)c2c(-c3ccc(Br)cc3)n(CCc3ccccc3)cc2n(C)c1=O`, the AC50 is reported as 31.6 µM [falling, single point].
In the case of `CCc1cc2cc3c(cc2nc1SCC(=O)N1CCN(C(=O)c2ccco2)CC1)OCO3`, the AC50 is reported as 15.8 µM [falling, partial curve].
In the case of `Cc1ccc(C(C)C)c(OCC(=O)Nc2ccccc2N2CCN(C)CC2)c1`, the AC50 is reported as 15.8 µM [falling, partial curve].
In the case of `Cc1ccccc1C(=O)Nc1nc2nc(-c3ccccc3)cc(=O)n2[nH]1`, the AC50 is reported as 20 µM [falling, single point].
For `Clc1cccc(-n2cc(-c3ccccc3)c3c(N4CCCCC4)ncnc32)c1`, the AC50 was 39.8 µM [falling, single point].
In the case of `CCC(c1nnnn1Cc1ccc2c(c1)OCO2)N1CCN(c2ccccc2)CC1` (stereo unspecified), the AC50 is reported as 31.6 µM [falling, single point].
For `CCOc1cc(C(=O)NCCc2csc3nc(-c4ccccc4F)nn23)cc(OCC)c1OCC`, the AC50 was 12.6 µM [falling, partial curve, poor fit].
With `COc1ccc(Cn2c(C(=O)O)c(CNCCc3ccco3)c3ccc(C)cc32)cc1` the AC50 was 10 µM [falling, partial curve].
With `O=C(CN1C(=O)CCn2nc(-c3ccccc3)cc21)NCc1ccc(F)cc1` the AC50 was 25.1 µM [falling, partial curve].
In the case of `CCCc1[nH][nH]c(=O)c1C(c1cccc(Cl)c1)C(C#N)C#N` (stereo unspecified), the AC50 is reported as 31.6 µM [rising, single point] [measured here: IkB-luc green channel].
In the case of `CCOc1ccc(NC(=O)c2cnn(-c3ccc(C)c(C)c3)c2C2CCN(C(=O)OC(C)(C)C)CC2)cc1`, the AC50 is reported as 0.01 µM [falling, full curve, poor fit].
With `CCc1ccc(OCC(=O)N(Cc2ccco2)Cc2ccccc2Cl)cc1` the AC50 was 31.6 µM [falling, partial curve].
In the case of `CCCC(=O)Nc1ccc2oc(-c3cccnc3)nc2c1`, the AC50 is reported as 0.1 µM [rising, full curve, poor fit].
With `Cc1ccc(-c2csc(NC(=O)c3cccc(S(=O)(=O)N4CCN(C)CC4)c3)n2)cc1` the AC50 was 12.6 µM [falling, partial curve].
In the case of `COc1ccc(NCc2cc3cc4c(cc3n(CC(=O)Nc3ccc(F)cc3)c2=O)OCCO4)cc1`, the AC50 is reported as 15.8 µM [falling, partial curve].
With `COc1cccc(C(=O)N(Cc2cccnc2)c2nc3c(OC)ccc(C)c3s2)c1OC` the AC50 was 15.8 µM [falling, partial curve].
With `O=C(CSc1nc2ccccc2nc1Cc1ccc(Cl)cc1)N1CCCc2ccccc21` the AC50 was 31.6 µM [falling, partial curve].
In the case of `COc1ccc(NC(=O)c2ccc(COc3ccccc3Br)o2)cc1OC`, the AC50 is reported as 7.94 µM [falling, partial curve].
In the case of `O=C(c1ccc([N+](=O)[O-])cc1)[C@@H](Br)[C@@H](Br)c1ccnc2ccccc12`, the AC50 is reported as 6.31 µM [rising, single point] [measured here: IkB-luc green channel].
With `Cn1c(=O)c2c(nc(SCCOc3ccc4ccc(=O)oc4c3)n2C)n(C)c1=O` the AC50 was 2 µM [falling, full curve, poor fit].
For `COC(=O)C(C)Sc1nc2c(cnn2-c2ccc(F)cc2)c(=O)[nH]1` (stereo unspecified), the AC50 was 3.98 µM [rising, partial curve].
In the case of `Cc1nc2ccccc2n2c(-c3ccccc3)c3c(=O)n(C)c(=O)n(C)c3c12`, the AC50 is reported as 39.8 µM [falling, single point].
In the case of `CCOC(=O)Cn1c(=O)n(C2CCCCC2)c2nc(-c3ccc(CC)cc3)nc(C(N)=O)c21`, the AC50 is reported as 39.8 µM [rising, single point].
In the case of `Cc1cc(C)cc(NC(=O)Cn2c(=O)n(-c3cc(C)cc(C)c3)c(=O)c3oc4ccccc4c32)c1`, the AC50 is reported as 10 µM [falling, partial curve].
For `Cc1ccc(S(=O)(=O)NCCc2csc(-c3ccc(Cl)cc3)n2)cc1`, the AC50 was 10 µM [falling, partial curve].
For `Cc1c(Cl)cccc1NC(=O)CCS(=O)(=O)c1ccc2c(c1)oc(=O)n2C`, the AC50 was 0.01 µM [falling, full curve, poor fit].
For `Cc1ccc(NC(=O)CSc2nnc(-c3ccccc3Br)o2)cc1C`, the AC50 was 20 µM [falling, partial curve].
In the case of `Cc1cc2nc(-c3ccc(SCC(=O)N4CCOCC4)nc3)[nH]c2cc1C`, the AC50 is reported as 15.8 µM [falling, partial curve].
In the case of `CCOC(=O)c1oc2ccc(S(=O)(=O)n3nc(-c4ccccc4OC)cc3N)cc2c1C`, the AC50 is reported as 12.6 µM [falling, partial curve].
With `O=C(O)CSCCCC(=O)Nc1ccc(Br)cc1` the AC50 was 31.6 µM [falling, partial curve].
In the case of `CCCC(=O)Nc1cccc(NC(=O)c2ccc3c(c2)OCO3)c1`, the AC50 is reported as 15.8 µM [falling, partial curve].
For `CCn1c(=O)n(-c2ccc(C)c(F)c2)c(=O)c2sc3ccccc3c21`, the AC50 was 6.31 µM [rising, single point].
For `CCOCCCNC(=O)c1ccc2nc(CCc3ccccc3)oc2c1`, the AC50 was 1 µM [rising, full curve, poor fit].
For `COc1ccc(C2=NC3(CCCCC3)N(CC(=O)Nc3ccc(C(C)C)cc3)C2=O)cc1`, the AC50 was 15.8 µM [falling, partial curve].
For `Cn1c(=O)c2c(-c3ccccc3)n3c(c2n(C)c1=O)C(c1ccccc1[N+](=O)[O-])Nc1ccccc1-3` (stereo unspecified), the AC50 was 39.8 µM [falling, single point].
With `Cn1c(=O)c2c(c3ccccc31)OC(=O)CC2c1ccc(C(F)(F)F)cc1` (stereo unspecified) the AC50 was 31.6 µM [falling, single point].
In the case of `COc1cccc(NC(=O)c2sc3nc(C)c(C(=O)Nc4ccc(C)cc4C)c(-c4ccccc4Cl)c3c2N)c1`, the AC50 is reported as 12.6 µM [falling, partial curve].
In the case of `CCc1ccc(-c2nc(CN3CCC(C(=O)NCCc4ccc(Cl)cc4)CC3)c(C)o2)cc1`, the AC50 is reported as 10 µM [falling, partial curve].
With `COc1ccc(C)cc1NC(=O)CN(Cc1nnc(-c2ccc(Cl)cc2)o1)C1CCCC1` the AC50 was 12.6 µM [falling, partial curve].
For `Cn1c2ccccc2c2c(C(=O)N3CCN(c4ccccc4)CC3)cn(C3CCCC3)c(=O)c21`, the AC50 was 12.6 µM [falling, partial curve].
In the case of `Cc1ccc2nc(N(Cc3cccnc3)C(=O)Cc3ccccc3)sc2c1`, the AC50 is reported as 39.8 µM [falling, single point].
With `CCc1ccccc1NC(=O)CCn1nc(C)c2c(C)n(-c3ccccc3)nc2c1=O` the AC50 was 31.6 µM [falling, single point].
With `Cc1ccccc1Cn1c(SCc2ccc(C(=O)NC(C)c3ccccc3)cc2)nc2ccncc21` (stereo unspecified) the AC50 was 15.8 µM [falling, partial curve].
For `Fc1ccc(NCc2cccn2-c2nnc(N3CCOCC3)s2)cc1`, the AC50 was 0.501 µM [falling, full curve].
